Data on seven molecules can be found in publication doi:10.1101/363747.

B1: eIF3d (protein, UniProt O94236 1-567)
chain: MATGFKLPELAPVKSAWGPPETEQIGGDIPYAPFSKGDRLGKIADWSVDQPKDGREQRGRQGAFAGRFRDQYQTYGYGASSIFGYQHSEDESSFSVIDRGSVNRTRTSARNGGTLLKVRGRGQNVQRGGRGGRYGSSGGRGAGDTVVSRSSGAGGARGRRFGWKDYDKHQRLRNASVTVGDDWQLLDEVEFSHLSKLNLAAAAPVTVDSYGYIYPYDKSFDKIHVKSEKPLQALDRVHYNPTTTEDPVIQKLALNSDANIFITDSILSLLMCSTRSVYPWDIVITHQSGKLFFDKREGGPFDYLTVNENAYDSPMDADNREGVNSPGALSVEATYINQNFCVQALRETEEEKYKLPHPNPFYNSKEQSEPLAAHGYIYRDVDLSLETDEKPVKLMVRTEVDGYVKNPANDVQYISIKALNEYDPKFTNVTGSVDWRSKLESQRGAVFATEMKNNSCKLARWTVEALLAGVDSMKVGFVSRSNARDAQHHGILGVVAYKPADLASQMNLSLSNGWGIVRTIADVCLKMPDGKYVLVKDPNRPILRLYSVPPNTFEEAAGPSLEASSTA
B2: eIF3e (protein, UniProt O94513 1-501)
chain: MGSELKSTSPLAVKYDLSQKIMQHLDRHLIFPLLEFLSLRQTHDPKELLQAKYDLLKDTNMTDYVANLWTNLHGGHTDEDMANAFAEKRRSVLQELSELEEEVQGILGVLENPDLIAALRQDKGQNLQHLQEHYNITPERIAVLYKFAQFQYNCGNYGGASDLLYHFRAFSKDPELNASATWGKFASEILTVDWDGAMEELGKLREMVDSKSFKDSAVQLRNRTWLLHWSLFPLFNHANGCDTLCDLFFYTPYLNTIQTSCPWLLRYLTVAVVTNQNNANQKPRNPRQSYQRRMRDLVRIISQENYEYSDPVTSFISALYTEVDFEKAQHCLRECEEVLKTDFFLVSLCDHFLEGARKLLAEAYCRIHSVISVDVLANKLEMDSAQLIQLVENRNNPSVAAASNVAADQSTEDESIESTSTNVVADDLITEAETATEAEEPEPEVQFGFKAKLDGESIIIEHPTYSAFQQIIDRTKSLSFESQNLEQSLAKSISELKHATV
B3: Tif32 (eIF3a) (protein, UniProt O74760 1-932)
chain: MAPPQGKPENVLRLADELIALDQHSSALQSLHETIVLKRSRNAQGFSLEPIMMRFIELCVHLRKGKIAKEGLYTYKNAVQNTSVTAIENVVKHFIELANKRVQEAQEKADKISVEYVDDLEATETPESIMMSLVSGDLSKSRTDRALVTPWLKFLWDAYRTVLDILRNNARLEVMYQLIANSAFQFCLKYQRKTEFRRLCELLRSHLGNASKFSNAPHSINLNDAETMQRHLDMRFSQLNVAVELELWQEAFRSIEDIHSLLTFSKRAPAAVMLGNYYRKLIKIFLVCDNYLLHAAAWNRYFTFTNVQKPATANFVILSALSIPIIDANKLSGPSIEAEDAKSKNARLALLLNLSKTPTRETLIKDAISRGVLSFCDQAIRDLYQILEVEFHPLSICKKLQPIIKRLAESNDTAQYIRPLQQVILTRLFQQLSQVYDSISLKYVMDLATFEEPYDFNPGQIEKFIMNGNKKGAFSIRLNHIENSISFSSDLFSNPIKSSDSVSLQSTPSELITSQLTRIAKSLSSVLMRFDTDFCLLRKQQAEAAYERAQAGVEQERKAVIAQRSLLELRRGQADTLATQREAELAAQRALKQKQESEAESLRVQEEINKRNAERIRREKEAIRINEAKKLAEELKAKGGLEVNAEDLEHLDADKLRAMQIEQVEKQNKSMNERLRVIGKRIDHLERAYRREAIPLWEEDAKQQAEHDREIFYEREKQRKEVQERKHEQAIKDKKAFAQFASYIHAYKQNIDDERDKAYQEAYAKAKNVIDAERERQRKEIFEQKLAEAIREAEEEAARAAEEEANRELHEQEEAQKRAIEERTRAAREAKEREQREMAEKLERQRRIQQERDEEISRKLAEKAAARRANIGASSPSPGAWRRGGASAGGVSRDSPRYSRGGYSRGSVPPRETLAPSKGAYVPPSRRNQQQQ
B4: eIF3g (Tif35), endogenous (protein, UniProt P78795 1-282)
chain: MSSSKSLDWADDEDYGTGLPSIQTFDNPDGTKTMIEFRIDDNGKKVKVTRVIRKTVITERVQHAVAERKKWKKFGKEAGKNSGVDARTTSVGENVQLRLQLGWTTTKEEEQDEAALAAAKVKAKGSSVVRCRACKGNHFTAQCPYKSIIGPVDEPPLDASPVSSRASGALGEKGRYIAPHLRAGSGRESGDSMFKRERDDSATLRVTNLSDDTREEELRDLFRRFGGIQRVYLAKDKETGRAKGFAFVSYYDRDCAIKARDRLDGYGWNNLILRCEFSKPRD
B5: eIF3i (Sum1), endogenous (protein, UniProt P79083 1-328)
chain: MRPIILQGHERPLTQIKYNHDGDLLFSCAKDKVINVWFSHNGERLGTYEGHTGAIWTCDINKSSTLMVSGAADNTMRLWDVKTGKQLYKWEFPTAVKRVEFNEDDTRILAVTEERMGYAGTVTVFRVPISESDAAAETPLYVITTRESKATVAGWSYLSKFLFTGHEDGSVSRYDAITGEFVESKQVHNSGSTITDLQFYPDRTYFITSCKDTTAKAIDVDSFEVIKTYLTDTPLNTSSFTPVQDFVILGGGQEARDVTTTAARQGKFEARFYHAILEEELGRVKGHFGPINTIAVHPKGTGYASGGEDGYVRVHFFDKNYFDFKYTL
B6: eIF3c (protein, UniProt O14164 1-918)
chain: MSRFFKGGSSDSDAESVDSSEENRLTSSRLKKQDDSSSEEESSEEESASSSESESSEEESESEESEVEVPKKKAVAASEDSESDSESSEEEEETESEEDSEVSDESESESESESESEEESESEEESDESERSGPSSFLKKPEKEEAKPAGLKFLRGESSEESSDEEEGRRVVKSAKDKRYEEFISCMETIKNAMSSNNWIVVSNEFDHLNKVSQKCKEAGRNPPPYIEFLSALDQKLESADKAFIKSLDAANGRAFNALKQRVRKNNRQFQSDIDRYRKDPEGFMKPAELNEIPKPAGKAGQDEVIVDGVATRGIVAPTEGLGKPEEITPADIFKYLRAIFEARGKKSTDRSEQIRLLEKLSTIAVTDYQRLRVKVALLAVRFDINTGSGQYMPIDQWNAALTELHSILDIFDANPKIVIVEQVEDENEEEEEAIAAAENNNGVIQVQGSVVSFLERLDDEFTRSLQMIDPHTPEYIDRLKDETSLYTLLVRSQGYLERIGVVENTARLIMRRLDRVYYKPEQVIRANEEVAWRSFPPTFDLTITPRATTTTPDILIHSLCVYLYNNGVSLLRTRAMLCHIYHEALQNRFYKARDMLLMSHLQDSVHAADIATQILHNRTMVQIGLCAFRNGMVQETQYALQDISTTGRVKELLGQGIQAPKFGQFTPDQDRLDKQLVLPFHMHINLELLECVYLTCSMLMEIPAMAAASSTASDSRKRVISRPFRRMLEYIDRQLFVGPPENTREYIMQASKALADGEWRRCEEFIHAIKIWSLMPDADKIKQMLSEKIREEGLRTYLLAYAAFYDSVSLEFLATTFDLPVQRVTVIVSRLLSKREIHAALDQVHGAIIFERVEINKLESLTVSLSEKTAQLNEANEKLYEQKTQHTNPQENRRRDKGGSVKRRNERTENRNRSDMN
B7: eIF3b (protein, UniProt Q10425 1-725)
chain: MSEILIEEIKDQIVVKDEEIDVSELEVKLNVTKPVGYDTVVVIEGAPVVEEAKQQDFFRFLSSKVLAKIGKVKENGFYMPFEEKNGKKMSLGLVFADFENVDGADLCVQELDGKQILKNHTFVVRKLNQLEKAFSTPDEFSFEEREFKEREHLRSWLTDYYGRDQFISYYGNRVSVNWNRKSDVPEQIVDRENWTETYVQWSPMGTYLVSLHLRGIQLWGGESWGMCARFLHPYVKFVDFSPNEKYLVSWSYEPVRLPPIGHPARETMPFTDDDEGKHCFVWDIASGRILRSFKIPPQPEGSKDGKKVIWPIFKWSADDKYLARVTVGQSISVYETPSLALVDKKTIKIDGVQNFEWCPVSDALGRDSKEQLLAYWTPEITNQPARVALISIPSKSTIRTKNLFNVSDCKLYWQSNGDYLCVKVDRHTKTKKSTFSNLEIFRIREKNIPVEVVDLKDVVLNFAWEPKSDRFAIISANDQVLNSTNVKTNLSFYGFEQKKNTPSTFRHIITFDKKTCNSLFMAPKGRFMVAATLGSSTQYDLEFYDLDFDTEKKEPDALANVQQIGSAEHFGMTELEWDPSGRYVTTSSTIWRHKLENGYRLCDFRGTLLREEMIGEFKQFIWRPRPPSPLTKEDMKKIRKKLKDYNRLFDEEDIAEQSSANRELAARRRQLISEWQKYRDEVIARVAEERAITGQPAITVPAEEEEIIQETVEEVISEEIEPVED

These are yes or no findings as the source states them, for the method shown. In cells and extracts the contact can be indirect. These calls come from enrichment with a bait or labelling near it, and not all partners need be listed. No binding means not detected with the bait.

For this experiment, the target named is eIF3m-TAP (S. pombe). In words: affinity purification with mass spectrometry.
For B1, the binding entry was “binds”. Regarding B2, the binding entry is listed as “no binding”. As to B3, the binding result was “binds”. As to B4, the binding result is given as “binds”. As for B5, the binding entry is reported as “binds”. Regarding B6, the binding result is reported as “binds”. For B7 the value was “binds”.
